Test results published in PubChem BioAssay AID1347075 (National Center for Advancing Translational Sciences (NCATS), 2019).
About 5,500 (1.4%) of roughly 400,000 compounds were called active. This list was built around the results that the source calls inconclusive (neither active nor inactive); the mix of calls is not that of the screen. Calls come from the whole dose curve; as a rule, active = well fitted cell-killing curve with a large enough effect; inconclusive = small, poorly fitted or top-dose-only effect, or effect the other way; inactive = flat fitted curve, though single readings scatter. A potency beside an inconclusive call is a rough fit, not a confirmed value.
% is set by controls: 0 for no effect and ±100 for the full control effect; potency is the fitted concentration of half-maximal effect.

Assay: qHTS assay for MDR1-selective chemotherapeutics: Primary screen using the parental adenocarcinoma cell KB-3-1; note: nearly all actives have a fitted effect of over 60% in size
Details: KB-3-1 viability, CellTiter-Glo ATP luminescence, 72 h; activity change, negative = cytotoxic: at 46.1 µM (top of the series)
Method in brief: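 Cytotoxicity in the drug-sensitive parental line KB-3-1 was scored as loss of CellTiter-Glo luminescence following 72 h incubation with compound. Values come from curve fitting of normalized concentration-response data.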
In the case of `Cn1c(SCC(O)c2ccccc2)nnc1-c1ccc2ccccc2c1` (stereo not drawn), the Potency is reported as inconclusive: 2.31 µM [cytotoxic, full curve]. In the case of `Cc1ccc(C2NC(=O)c3ccccc3N2)s1` (stereo not drawn), the Potency is reported as active: 4.61 µM. With `COc1cccc(-c2cc(C(=O)NCCc3ccccc3)no2)c1` the Potency was inconclusive: 25.9 µM [cytotoxic, single point]. For `CC1Cc2cc(S(=O)(=O)N3CCN(c4ccc(Cl)cc4)CC3)ccc2N1C(=O)C1CC1` (stereo not drawn), the Potency was inconclusive: 7.31 µM [cytotoxic, partial curve]. For `COc1cc(/C=C/C(=O)c2c(O)cc(C)oc2=O)cc(OC)c1O`, the Potency was inconclusive: 18.4 µM [cytotoxic, single point]. With `O=C(O)CCn1cc(/C=C/C(=O)c2ccc(Cl)cc2)c(-c2ccc(Br)cc2)n1` the Potency was inconclusive: 18.4 µM [cytotoxic, single point]. With `COc1cc(CNn2cn[nH]c2=S)cc(Cl)c1OCc1ccc(F)cc1` the “activity change, negative = cytotoxic” value was inactive: -13.3%. In the case of `COc1cc2c(cc1OC)C(COc1ccc([N+](=O)[O-])cc1)N(C(C)=O)CC2` (stereo not drawn), the Potency is reported as active: 16.4 µM. In the case of `COc1ccc(C(=O)NC(=S)N(C)C2CCCCC2)cc1Br`, the Potency is reported as inconclusive: 29.1 µM [cytotoxic, single point]. In the case of `CC(=O)Nc1nc(N2C(=O)c3ccccc3C2=O)n(-c2ccccc2)n1`, the “activity change, negative = cytotoxic” value is reported as inactive: -2.99%. With `COc1cccc(N2CCN(CC(=O)Nc3ccc(SC(F)F)cc3)CC2)c1` the “activity change, negative = cytotoxic” value was inactive: -7.37%. With `COc1ccc2nc(NC(=O)c3cc(C)oc3C)sc2c1` the Potency was inconclusive: 11.6 µM [cytotoxic, single point]. For `N#Cc1c(N)nc2c(c1-c1ccc3c(c1)OCO3)CCc1ccccc1-2`, the Potency was inconclusive: 29.1 µM [cytotoxic, single point]. For `Cc1cc(/N=C/C=C2/N(C)c3ccccc3C2(C)C)n(CCC#N)n1`, the Potency was inconclusive: 29.1 µM [cytotoxic, single point]. With `COc1ccc(N2CC(NC(=O)N3CCN(C(=O)c4ccco4)CC3)CC2=O)cc1OC` (stereo not drawn) the “activity change, negative = cytotoxic” value was inactive: 12.3%. In the case of `Cc1ccc(CN(C)C(=O)c2ccccc2Oc2ccccc2)o1`, the “activity change, negative = cytotoxic” value is reported as inactive: 1.86%. In the case of `CCc1ccc(N(CC)C(=O)Cn2c(=O)oc3ccccc32)cc1`, the “activity change, negative = cytotoxic” value is reported as inactive: 1.07%. In the case of `CC[N+](CC)(CC)c1ccc(/C=C/c2ccc3ccccc3n2)cc1`, the Potency is reported as active: 1.84 µM. For `COc1ccc(/C=C/C(=O)c2ccc3c4c(cccc24)CC3)cc1`, the Potency was inconclusive: 29.1 µM [cytotoxic, single point]. In the case of `NS(=O)(=O)c1cccc(NC(=O)CC23CC4CC(C2)CC(CC(=O)Nc2cccc(S(N)(=O)=O)c2)(C4)C3)c1`, the activity change, negative = cytotoxic is reported as inconclusive: -2.32%. For `N#CCCN(Cc1cccs1)C(=O)c1ccc(Cl)cc1`, the Potency was inconclusive: 13 µM [cytotoxic, partial curve, poor fit]. In the case of `COc1cccc2cc(C(=O)NCCc3c(C)[nH]c4ccc(Br)cc34)c(=O)oc12`, the “activity change, negative = cytotoxic” value is reported as inactive: 4.61%. With `C=CCc1ccc(OCCOc2cccc3ccc(C)nc23)c(OC)c1` the Potency was inconclusive: 16.4 µM [cytotoxic, single point]. For `O=C(CN1C(=O)CC(c2ccccc2)Sc2ccccc21)Nc1cccc(Cl)c1` (stereo not drawn), the Potency was inconclusive: 20.6 µM [cytotoxic, single point]. For `Cc1ccc2c(CC(=O)NC3CCS(=O)(=O)C3)coc2c1C` (stereo not drawn), the “activity change, negative = cytotoxic” value was inactive: 2.17%. In the case of `Cc1cc(Oc2ccccc2)nc(-c2ccccc2O)n1`, the “activity change, negative = cytotoxic” value is reported as inactive: -1.02%. For `CCc1nc(N2CCCCC2C)c2oc3ccccc3c2n1` (stereo not drawn), the Potency was inconclusive: 18.4 µM [cytotoxic, single point]. For `CC(=O)c1cccc(NC(=O)CCS(=O)(=O)c2ccc(Br)s2)c1`, the activity change, negative = cytotoxic was inconclusive: 11.9%. In the case of `COc1ccc(CCNC(=O)CCNC(=O)c2ccc(Cl)cc2)cc1OC`, the Potency is reported as inconclusive: 0.82 µM [rising, full curve, poor fit]. In the case of `Cc1[nH]c2ccc(C(=O)N3CCCC3)cc2c1C`, the “activity change, negative = cytotoxic” value is reported as inactive: -5.35%. With `N#CC1=C(SCC(=O)c2ccccc2)NC2=C(C(=O)CCC2)C1c1ccco1` (stereo not drawn) the Potency was active: 18.4 µM. With `Cc1cccc(N2CCN(C(=O)c3c(Cl)cnn3C)CC2)c1C` the Potency was inconclusive: 18.4 µM [cytotoxic, single point]. In the case of `CCn1nc(-c2ccccc2C)nc2c(=O)n(C)c(=O)nc1-2`, the Potency is reported as inconclusive: 29.1 µM [cytotoxic, single point]. For `COc1cc(-c2cnc3c(NC=O)cc(-c4cccc(C(=O)NCCN(C)C)c4)cn23)cc(OC)c1OC`, the “activity change, negative = cytotoxic” value was inactive: 0%. For `COc1ccc2cc(/C=C3\SC(=S)NC3=O)c(N3CCOCC3)nc2c1`, the Potency was inconclusive: 20.6 µM [cytotoxic, single point]. For `CC(=O)Nc1ccc(S(=O)(=O)N2CCCc3ccccc32)cc1`, the “activity change, negative = cytotoxic” value was inactive: 16.7%. In the case of `Cc1ccc(S(=O)(=O)Nc2cccc(-c3ccc4nncn4n3)c2)cc1`, the Potency is reported as active: 3.66 µM. In the case of `O=C(CN1CCN(c2ccc([N+](=O)[O-])cc2)CC1)Nc1nccs1`, the Potency is reported as inconclusive: 29.1 µM [cytotoxic, single point]. With `COc1ccc(C(=O)C(C)OC(=O)C2CC3CCCC(C2)C3=O)cc1` (stereo not drawn) the “activity change, negative = cytotoxic” value was inactive: 2.1%. In the case of `COc1ccccc1NC(=O)N1CCN(c2cc(-c3ccccc3)nc3ncnn23)CC1`, the Potency is reported as inconclusive: 18.4 µM [cytotoxic, single point]. For `O=C1NC(Cc2ccc(O)cc2)c2nc3ccc(Cl)cc3c(=O)n2-c2cc3ccccc3cc21` (stereo not drawn), the Potency was inconclusive: 13 µM [cytotoxic, partial curve, poor fit]. With `Cc1ccc(CNS(=O)(=O)c2ccc(-n3cnnn3)c(C)c2)cc1` the “activity change, negative = cytotoxic” value was inactive: -3.6%. In the case of `CCOc1cc(CNCCO)cc(Br)c1OCc1ccccc1Cl`, the Potency is reported as inconclusive: 23.1 µM [cytotoxic, single point]. With `COc1ccc(CN2C(=O)C(CC(=O)NCC3CCCCC3)CC(C(=O)N(C)C)=C2C)cc1` (stereo not drawn) the “activity change, negative = cytotoxic” value was inactive: 0%. For `COc1cc(CNCCSc2nnnn2C)cc(Br)c1OCc1ccccc1F`, the Potency was inconclusive: 29.1 µM [cytotoxic, single point]. With `CNC(=O)C[C@@H]1C(=O)N(c2ccc(Br)cc2)CC1(C)C` the activity change, negative = cytotoxic was inconclusive: 34.7%. With `COc1ccc(-c2nc(N3CCCC3)[nH]c(=O)c2C#N)cc1` the Potency was inconclusive: 25.9 µM [rising, single point]. In the case of `Cc1cccc(CNC(=O)C2CCN(c3nc4ccc(Cl)cc4[nH]3)CC2)c1`, the “activity change, negative = cytotoxic” value is reported as inactive: 7.52%. With `Cc1cc(-c2nnc3n2N=C(c2ccc(-c4ccccc4)cc2)CS3)n[nH]1` the Potency was inconclusive: 29.1 µM [cytotoxic, single point]. For `COc1ccc(-n2c(SCC(=O)Nc3cc(C)on3)nc3ccccc3c2=O)cc1Cl`, the Potency was inconclusive: 29.1 µM [cytotoxic, single point]. For `Cc1ccc(CNC(=O)CSc2c3c(nc4ccc(Cl)cc24)CCCC3)o1`, the Potency was inconclusive: 23.1 µM [cytotoxic, single point]. With `C=CCCC(=O)Nc1nc(C)c(-c2csc(Nc3ccc(Cl)cc3)n2)s1` the Potency was inconclusive: 29.1 µM [cytotoxic, single point]. With `CC1CCN(C(=O)CCc2nnc3ccc(NCCCN4CCCC4=O)nn23)CC1` the “activity change, negative = cytotoxic” value was inactive: -1.14%. For `Cc1cc(Cl)ccc1OC(C)C(=O)N1CCCN(C(=O)C(C)Oc2ccc(Cl)cc2C)CC1` (stereo not drawn), the Potency was active: 13 µM. In the case of `S=C(NCc1ccco1)N/N=C/c1ccc(Cl)cc1`, the “activity change, negative = cytotoxic” value is reported as inactive: 3.04%. In the case of `O=C(CN1CCOc2ccccc21)N1CCC(Cc2ccccc2)CC1`, the Potency is reported as inconclusive: 29.1 µM [cytotoxic, single point]. In the case of `COc1ccccc1C(CNC(=O)c1ccc(-c2ccccc2Cl)o1)N1CCCC1` (stereo not drawn), the Potency is reported as inconclusive: 25.9 µM [cytotoxic, single point]. With `CNc1nc(NCc2ccco2)c2ccccc2n1` the Potency was inconclusive: 13 µM [cytotoxic, partial curve, poor fit]. In the case of `COc1cccc(N2CN(C3CCCCC3)CNC2=S)c1`, the Potency is reported as inconclusive: 0.0517 µM [cytotoxic, full curve]. For `COc1ccc(OC)c(NC(=O)c2cc3ccccc3o2)c1`, the “activity change, negative = cytotoxic” value was inactive: -5.59%. With `Cc1ccc(NC(=S)N=Nc2c(O)[nH]c3ccccc23)cc1` the Potency was inconclusive: 16.4 µM [cytotoxic, partial curve, poor fit]. With `CC(C)(C)c1ccc(NC(=O)N2CCN(c3ccc([N+](=O)[O-])cn3)CC2)cc1` the Potency was inconclusive: 18.4 µM [cytotoxic, partial curve, poor fit]. For `O=C(NCC1CC1(Cl)Cl)Nc1ccc(Cl)c(Cl)c1` (stereo not drawn), the Potency was inconclusive: 11.6 µM [cytotoxic, partial curve, poor fit]. In the case of `N/C(Cc1ccccc1)=N\OC(=O)c1cccc2ccccc12`, the Potency is reported as inconclusive: 29.1 µM [cytotoxic, single point]. With `CCOC(=O)c1c(C)[nH]c(C)c1S(=O)(=O)NCC(=O)N(C)c1ccc(C)c(C)c1` the “activity change, negative = cytotoxic” value was inactive: 0.222%. In the case of `C[C@@H]1CN([C@H](C)CO)C(=O)CCCn2nncc2CO[C@@H]1CN(C)C(=O)Nc1ccc2c(c1)OCO2`, the Potency is reported as inconclusive: 7.31 µM [cytotoxic, partial curve]. With `CCOC(=O)c1cnc2c(OC)cccc2c1Nc1cccc(O)c1` the Potency was inconclusive: 29.1 µM [cytotoxic, single point]. In the case of `O=C(CCc1ccccc1)N1CCN(c2ccc(F)cc2)CC1`, the “activity change, negative = cytotoxic” value is reported as inactive: -3.21%. With `CCOc1ccc(N2CC(C(=O)NC3CCSC3=O)CC2=O)cc1` (stereo not drawn) the “activity change, negative = cytotoxic” value was inactive: 5.7%. For `CC(=O)/C=C1\SC(CC(=O)O)C(=O)N1c1ccccc1` (stereo not drawn), the “activity change, negative = cytotoxic” value was inactive: 1.68%. In the case of `O=C(Nc1cccc([N+](=O)[O-])c1)Nc1ccc2c(c1)CCC2`, the Potency is reported as inconclusive: 25.9 µM [cytotoxic, single point]. For `CCCCCCCCN1C(=O)[C@H](CC(=O)N2CCCCC2)C[C@@]2(C(=O)OC)CCCCC=C12`, the Potency was inconclusive: 18.4 µM [cytotoxic, single point]. With `CCc1nnc(NC(=O)CCC(=O)N2CCC(Cc3ccccc3)CC2)s1` the Potency was inconclusive: 8.2 µM [cytotoxic, partial curve].
